Measured values reported in patent publication US7199170B2, “Non-xenoestrogenic stabilizers for organic materials” (Crompton Corporation, priority 1999, dated 2007).

Legend:
[1] = Long Term Heat Aging (ASTM D3045-92), polypropylene; settings: oven 140° C.
[2] = Hunter b Color, polyethylene; settings: Table 11; stabilizer 0.2%, Naugard 10 0.1%
[3] = Yellowness Index (ASTM D1925-70), polypropylene; settings: Table 2; stabilizer 0.2%, Naugard 10 0.1%
[4] = Table 9, stabilizer 0.2%, Naugard 10 0.1%

Row | Substance | LTHA [1, 4] [days] | Hunter b Color, Fifth Pass [2] | Hunter b Color, First Pass [2] | Hunter b Color, Third Pass [2] | LTHA ([1]; Table 3, stabilizer 0.2%, Naugard 10 0.1%) [days] | LTHA ([1]; Table 6, stabilizer 0.05%, Naugard 10 0.05%) [days] | Yellowness Index, Fifth Pass [3] | Yellowness Index, First Pass [3] | Yellowness Index, Third Pass [3]
1 | Bis(2,4-di-t-butylphenyl)octylphosphite [Stabilizer A] | 42 | −0.30 | −0.45 | −0.43 | – | – | – | – | –
2 | tris(nonylphenyl)phosphite [TNPP] | 50 | −0.13 | −0.41 | −0.18 | 66 | 27 | 25 | 13 | 18
